Results on two substances are retold here after patent US10329325 (dated 2019).

A short description of this series: general procedure: solution-phase peptide synthesis; BOP, hydroxybenzotriazole.

“(S)—N—((S)-1-(((2R,4S)-1,2-dihydroxy-2,6-dimethyl-3-oxoheptan-4-yl)amino)-1-oxo-3-phenylpropan-2-yl)-4-methyl-2-((S)-2-(2-morpholinoacetamido)-4-phenylbutanamido)pentanamide” showed a step yield (coupling step) of 40% yield.

As to “(4S,7S,10S,13S,15R)-10-benzyl-15-hydroxy-7,13-diisobutyl-15-methyl-1-morpholino-2,5,8,11,14-pentaoxo-4-phenethyl-3,6,9,12-tetraazahexadecan-16-yl methanesulfonate”, under “late stage modification step”, the step yield is given as 90% yield.
